The other results are listed elsewhere or left out.

The chains behind the UniProt entries cited, without tags or fusion partners.
UniProt Q0JBA9, entry or part of it: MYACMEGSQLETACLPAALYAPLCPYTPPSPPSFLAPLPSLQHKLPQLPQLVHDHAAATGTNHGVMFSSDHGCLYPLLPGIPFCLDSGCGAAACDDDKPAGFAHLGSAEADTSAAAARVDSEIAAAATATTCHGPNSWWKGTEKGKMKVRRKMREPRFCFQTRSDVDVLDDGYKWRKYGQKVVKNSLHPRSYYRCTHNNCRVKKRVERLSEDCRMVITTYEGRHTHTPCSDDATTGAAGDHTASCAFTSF

In the assay the target is OsWRKY34 (Oryza sativa, UniProt Q0JBA9 1-250). Briefly: protein-binding microarray (RPBM); PBS, 2% BSA, 51.3 ng/ul salmon testes DNA, 50 uM zinc acetate, 200 nM TF, 25 C, 1 h; high values mean tight binding. The conditions noted are these: protein: recombinant; tags: N-terminal polyhistidine and DsRed monomer fusion (pET32a); label: CyDye5-dUTP incorporated in the synthesized complementary strand; 3' TTTTT single-stranded linker to array surface; dsDNA, one strand shown. In short, it runs like this: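 A custom Agilent array was converted to double-stranded form by primer extension with Cy5-dUTP and blocked with 2% BSA. Protein at 200 nM in PBS with 2% BSA, salmon testes DNA and 50 µM zinc acetate was applied for 1 h at 25 °C, followed by washing. The proteins were polyhistidine–DsRed N-terminal fusions of transcription factors, expressed in E. coli BL21-CodonPlus and Ni–NTA-purified. The binding signal is per-feature fluorescence intensity (arbitrary units) from an Axon 4000B scanner.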
Turning to “CTCATTTGACTTCATTGCTAGCGTGCGTCCATATTCTATACGGAGTCACCTAGTGCAG”, the binding signal is 9490 fluorescence intensity (a.u.).

In the case of “CGCGCGCGCGCGGAGTTCTCTCTCTCTCCTGTTGACCACCCGGAGTCACCTAGTGCAG”, the binding signal is 8130 fluorescence intensity (a.u.). Consider “CACCTCTGCTTCCCCGGCGATGTCTCTGCTTTGCGCTCCGCGGAGTCACCTAGTGCAG”, for which the binding signal was 9880 fluorescence intensity (a.u.). For “CTCACCTTAATCCAGTTTTCTTTTGCCAATTTTTAGCTCACGGAGTCACCTAGTGCAG” the value was 8400 fluorescence intensity (a.u.).

Take “CCCTGAGGTTCTAGTTTACATTCGAAGTTACTTCCATTTCCGGAGTCACCTAGTGCAG”: the binding signal was 8730 fluorescence intensity (a.u.).

For the sequence “CCCGCCGCGATCCGGTCGCCGCCTCCACCACCACGCCGCGCGGAGTCACCTAGTGCAG”, the binding signal was 8740 fluorescence intensity (a.u.). As for “CCGTCGCCGGTTTCTCTTCTATCCACCGCCTCTCGCCGCCCGGAGTCACCTAGTGCAG”, the figure is 12400 fluorescence intensity (a.u.).

In the case of “CTCGTTTCCATTATTTATACTTGATTCTTCACTCCTTTTGCGGAGTCACCTAGTGCAG”, the binding signal was 11300 fluorescence intensity (a.u.). Turning to “CTTTCGATCATCCGCTTTTCTTTTTTTTATCATAATATAGCGGAGTCACCTAGTGCAG”, the binding signal is 8500 fluorescence intensity (a.u.). As for “ATATGCTTTCTGGAATTCTGGTGGCCCTAACTCCACTCCTCGGAGTCACCTAGTGCAG”, the binding signal is 10400 fluorescence intensity (a.u.). For “CACACCTTTGCATCATTGCTGCCCTACTTTCTTCAGTAGTCGGAGTCACCTAGTGCAG” the value was 9690 fluorescence intensity (a.u.); for “CCTCGCCCAGCTGTGCCCGTCGCCGCTCGCCACCGACCAGCGGAGTCACCTAGTGCAG”, 9200 fluorescence intensity (a.u.); for “ATACACGCAATTCCGCAAATAGACACCCCAGCACACGATACGGAGTCACCTAGTGCAG”, 8790 fluorescence intensity (a.u.). As for “GTCTTATACTTATTGTTGCTTGTCCTACTTTATTTTATTTCGGAGTCACCTAGTGCAG”, the binding signal was 15100 fluorescence intensity (a.u.).

Consider “ATGGATGGGGATTCATTTGTTTGGTGAGTAGTGGTCGGGTCGGAGTCACCTAGTGCAG”, for which the binding signal is 9800 fluorescence intensity (a.u.). As for “CCCGTGCGTCGCCGCCGCCGACTGCTGCCGATTGACTGCTCGGAGTCACCTAGTGCAG”, the figure is 8320 fluorescence intensity (a.u.). For “TCAGCATCCTCGACGCACAGGCGCAGCGTACGTCTCATGCCGGAGTCACCTAGTGCAG” the value was 8500 fluorescence intensity (a.u.); for “AAAAAAATTGTCACTGTAGTATAGATTCACGGCGATTTGCCGGAGTCACCTAGTGCAG”, 8800 fluorescence intensity (a.u.); for “TCCCACACGTTTCTCTCGCGCGGTTGCCACTTGCGATCGCCGGAGTCACCTAGTGCAG”, 13300 fluorescence intensity (a.u.). For “GGATAAGCTCCATGGTCACATATTTAGCTGTTATCTTCCTCGGAGTCACCTAGTGCAG”, the binding signal is 8440 fluorescence intensity (a.u.).

As to “CACATAAACTCCTAACTTTTTTTCCAAACTATCAAATTTCCGGAGTCACCTAGTGCAG”, the binding signal is 8750 fluorescence intensity (a.u.). With “ATTATACACATTTTTTTTTCATATTTTGGAAAATACATATCGGAGTCACCTAGTGCAG”, the binding signal is 10500 fluorescence intensity (a.u.). For “TCACACGCTACCTTCTTTTTTTTAGAGAAGGGTATTTTTTCGGAGTCACCTAGTGCAG” the value was 8610 fluorescence intensity (a.u.). On to “CACCGGCCTCCGAGGCTCCGATTCCTTCTCTTGCACACCACGGAGTCACCTAGTGCAG”, for which the binding signal was 8210 fluorescence intensity (a.u.). Take “GCAATTACATTTGCGGTTGGAGGAGGGGAGGCGCGGCGGACGGAGTCACCTAGTGCAG”: the binding signal was 10200 fluorescence intensity (a.u.).

Turning to “ACTGGAACATCTACCTCACTTGCCCTGCTCCCTTCTTATACGGAGTCACCTAGTGCAG”, the binding signal was 8040 fluorescence intensity (a.u.).

For “TGCATGCTGCTTCATTATGATGTCCTGATTTGGTGTTTTACGGAGTCACCTAGTGCAG”, the binding signal was 11400 fluorescence intensity (a.u.).

“TGTGCAGCGCTTTACTCAGCTGCTTTTCTGTTTACTTCCACGGAGTCACCTAGTGCAG”: the binding signal is 10400 fluorescence intensity (a.u.). For “ATTCCCCACTTCCCCAACCCAGGCGATCCTCCGCCGCCGCCGGAGTCACCTAGTGCAG” the value was 8210 fluorescence intensity (a.u.); for “CAGTAACTGTTACTGTTGCTACTATATCACTTGATATTCACGGAGTCACCTAGTGCAG”, 8290 fluorescence intensity (a.u.); for “CATCACACCCATTTCCTTGCCTACTCCTCAATTAGTTAACCGGAGTCACCTAGTGCAG”, 8650 fluorescence intensity (a.u.). As for “CTGCACTGCTGCTCATAGTCACACTCTCTCTCTGCTTCATCGGAGTCACCTAGTGCAG”, the figure is 9060 fluorescence intensity (a.u.). For the sequence “CTGGCATGTGGATGTACTTTTTTTTTTTTTTGCTTCAATCCGGAGTCACCTAGTGCAG”, the binding signal was 9880 fluorescence intensity (a.u.). With “TGGCGTCGTTCTCTCCTCCTCCCCGCTAAACCGCCGCCGGCGGAGTCACCTAGTGCAG”, the binding signal is 8740 fluorescence intensity (a.u.). On to “AATCCAATTTGTTGTATTTTGTTGTTTTCTCATCTATTACCGGAGTCACCTAGTGCAG”, for which the binding signal is 10400 fluorescence intensity (a.u.).

Consider “CCTTCGTTTACAAAGGGTGTGTTCGGCTGCTTTTTTTTTCCGGAGTCACCTAGTGCAG”, for which the binding signal is 10800 fluorescence intensity (a.u.).

Turning to “CTCTCTGTGTCTCCGCCGCCGCCGCCTCCGCCGCTCGCCGCGGAGTCACCTAGTGCAG”, the binding signal was 8060 fluorescence intensity (a.u.). For “GCCTCGTCGTCTTCGTCTCACGCCACCATCGCCATCGCGGCGGAGTCACCTAGTGCAG” the value was 10300 fluorescence intensity (a.u.); for “ACCTCAGGCCCACGTATTCCTGTCATCTTCCACCTCCGGACGGAGTCACCTAGTGCAG”, 13900 fluorescence intensity (a.u.); for “TTAATGTATCTAAATATTTTTTCTTACTCTTCTTTCCTTTCGGAGTCACCTAGTGCAG”, 8430 fluorescence intensity (a.u.). For “GCCTTCGGCTGTTGACGGCCTCTTCCTTTCACAGATCATACGGAGTCACCTAGTGCAG” the value was 9010 fluorescence intensity (a.u.); for “TGGTTGGGGTAGTGGGCCAGAATATTTATGCTTTTCTGGACGGAGTCACCTAGTGCAG”, 10100 fluorescence intensity (a.u.).

The values are drawn from PMC7819943, “Rice protein-binding microarrays: a tool to detect cis-acting elements near promoter regions in rice”.
